In patent US9387135B2, “Absorbent article” (UNICHARM CORPORATION, priority 2012, dated 2016):

Assays:
[1] = Absorbent body migration rate; conditions: after second dropping of horse EDTA blood; agent coated about 5 g/m^2
[2] = Top sheet whiteness, visual evaluation after migration rate test; set-up: species or system horse; key: VG (Very Good): Virtually no redness of blood remaining, and no clear delineation between areas with and without blood.; G (Good): Slight redness of blood remaining, but difficult to delineate between areas with and without blood.; F (Fair): Slight redness of blood remaining, areas with blood discernible.; P (Poor): Redness of blood completely remaining; conditions: skin contact surface after absorbent body migration rate test

Compound	Absorbent body migration rate [1]	Top sheet whiteness [2]
CCCCCCCCCCCC(=O)OCC(O)CO (centres unmarked) [90-L2 Lauric acid monoglyceride, lauric acid monoglyceride, reference compound]	7 s	P
CC(C)CCCCCCCCCCCCCCCOC(=O)CC(O)C(=O)OCCCCCCCCCCCCCCCC(C)C (centres unmarked) [Diisostearyl malate, reference compound]	8 s	F
CCCCCCCCOC(=O)CCCCC(=O)OCCCCCCCC [Dioctyl adipate]	6 s	VG
CCCCCCCCCCCCOC(=O)CCCCCCCCCCC [ELECTOL WE20, Ester of dodecanoic acid (C12) and dodecyl alcohol (C12)]	5 s	VG
CCCCCCCCCCCCCC(=O)OCCCCCCCCCCCC [ELECTOL WE40, Ester of tetradecanoic acid (C14) and dodecyl alcohol (C12)]	–	VG
CCCCC(CC)C(=O)OCC(C)(C)COC(=O)C(CC)CCCC (centres unmarked) [H-208BRS, Neopentyl glycol di(2-ethylhexanoate)]	5 s	VG
CCCCC(CC)C(=O)OCC(COC(=O)C(CC)CCCC)(COC(=O)C(CC)CCCC)COC(=O)C(CC)CCCC (centres unmarked) [H-408BRS, Pentaerythritol tetra(2-ethylhexanoate)]	–	VG
CCCCC(CC)C(=O)OCC(COC(=O)C(CC)CCCC)OC(=O)C(CC)CCCC (centres unmarked) [PANACET 800B]	3 s	VG
CCCCCCCC(=O)OCC(COC(=O)CCCCCCC)OC(=O)CCCCCCC [PANACET 800]	3 s	VG
CCCCOC(=O)CC(CC(=O)OCCCC)(OC(C)=O)C(=O)OCCCC [Tributyl O-acetylcitrate]	8 s	VG
Caprylic acid diglyceride [Caprylic diglyceride]	9 s	–
Isopropyl citrate [reference compound]	5 s	–
